## Library screen at single concentrations

Sequences of proteins named here, by UniProt entry; tags and fusion partners are left off. Residues count along the entry.
UniProt Q8IDJ8, 1-583: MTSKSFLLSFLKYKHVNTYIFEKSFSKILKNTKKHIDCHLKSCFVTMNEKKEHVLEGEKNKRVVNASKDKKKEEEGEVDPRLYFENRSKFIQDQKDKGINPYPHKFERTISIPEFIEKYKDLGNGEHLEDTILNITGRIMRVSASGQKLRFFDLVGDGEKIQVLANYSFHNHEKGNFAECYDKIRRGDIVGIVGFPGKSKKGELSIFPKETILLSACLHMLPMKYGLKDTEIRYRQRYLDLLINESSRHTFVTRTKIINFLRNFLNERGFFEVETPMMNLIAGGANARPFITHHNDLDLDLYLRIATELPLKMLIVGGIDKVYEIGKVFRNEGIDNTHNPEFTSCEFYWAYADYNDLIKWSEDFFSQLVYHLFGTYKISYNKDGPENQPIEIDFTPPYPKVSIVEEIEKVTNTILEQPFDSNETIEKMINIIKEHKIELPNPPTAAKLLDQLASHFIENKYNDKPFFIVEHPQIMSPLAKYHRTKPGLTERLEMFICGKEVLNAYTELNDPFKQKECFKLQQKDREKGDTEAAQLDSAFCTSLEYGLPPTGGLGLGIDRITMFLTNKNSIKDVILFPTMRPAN
UniProt A4I591, 1-473: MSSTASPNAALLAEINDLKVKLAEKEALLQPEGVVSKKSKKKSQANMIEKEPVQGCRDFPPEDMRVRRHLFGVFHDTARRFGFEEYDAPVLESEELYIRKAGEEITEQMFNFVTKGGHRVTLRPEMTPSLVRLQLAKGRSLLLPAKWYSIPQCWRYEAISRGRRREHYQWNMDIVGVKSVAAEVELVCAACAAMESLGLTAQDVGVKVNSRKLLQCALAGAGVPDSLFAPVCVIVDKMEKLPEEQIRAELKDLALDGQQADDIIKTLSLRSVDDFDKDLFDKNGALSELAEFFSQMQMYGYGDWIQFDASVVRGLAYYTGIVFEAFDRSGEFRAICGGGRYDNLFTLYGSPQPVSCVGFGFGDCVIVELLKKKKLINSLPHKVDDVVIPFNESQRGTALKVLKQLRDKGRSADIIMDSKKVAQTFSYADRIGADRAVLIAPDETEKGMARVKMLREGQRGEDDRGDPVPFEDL

From ChEMBL document CHEMBL3988442, “University of Dundee, Small-Polar-MMV Screening Library” (2021).

Values are the deposited “Percent Effect”, in %. The controls that fix the scale are not given in the record; negative values are as filed. Compounds were drawn at random from those tested, without regard to their results.

A: 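Whole-parasite assay of Trypanosoma brucei over 72 hours; the read-out is not stated. Compounds at 30 µM. The record gives no direction; compounds that gave an IC50 in retests scored well above the rest, so higher reads as stronger inhibition. Values scatter widely below zero; nearly all retest evidence comes from the higher of the two concentrations used. Of about 64,000 compounds tested this way, about 940 (1.5%) reached 50% or more in at least one test.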
B: 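Enzyme assay of the cytosolic lysyl-tRNA synthetase in 384-well plates, read by luminescence. Target: Lysine-tRNA ligase, Plasmodium falciparum 3D7 (UniProt Q8IDJ8). Compounds at 30 µM. Direction is inferred from only a few compounds that gave an IC50; most scored high, so higher reads as stronger inhibition. Of about 69,000 compounds tested this way, about 49 (0.071%) reached 50% or more in at least one test.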
C: 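Enzyme assay of histidyl-tRNA synthetase; the read-out is not stated. Target: Histidine-tRNA ligase, Leishmania infantum (UniProt A4I591). Concentration: 30 µM. Direction is inferred from retests: higher values go with stronger inhibition. The assay is labelled LdHisRS but filed under L. infantum. Of about 69,000 compounds tested this way, about 410 (0.6%) reached 50% or more in at least one test.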
D: 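Assay of Toxoplasma gondii numbers, read through their beta-galactosidase reporter with a colour substrate. Tested at 10 µM. The record gives no direction; the compounds picked for IC50 retests had high values, so higher reads as fewer parasites. Size under these conditions: about 67,000 compounds, about 260 of them at 50% or above in at least one test.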

* [H][C@]12CN(c3ncc(C)cn3)C[C@@]1([H])S(=O)(=O)CC[C@@H]2C(=O)NC(C)C | A: -223%; D: -11.55%
* COc1ccc(CCNC(=O)CN2CCCC2c2noc(C)n2)cc1 (centres unmarked) | A: -3.565%; B: -0.9622%; C: 12.73%; D: 19.94%
* COc1ccccc1CC(C)N(C)CCS(C)(=O)=O (centres unmarked) | A: -31.47%; B: 1.05%; C: 6.25%; D: -1.983%
* CCCc1nc(N2CCC(C)CC2)c2c(n1)c(C)nn2CC | A: -29.25%; B: -4.619%; C: 12.64%; D: 25.59%
* CCOC(=O)[C@]12CCCN(Cc3cccs3)C[C@H]1CN(C(C)C)C2 | B: 4.881%; C: 15.38%
* COc1ccc2nc(CNC(=O)c3cc(C(C)C)no3)[nH]c2c1 | A: -55.53%; B: -1.434%; C: 8.511%; D: -12.15%
* O=C(O)C(F)(F)F.O=C(O)C(F)(F)F.[H][C@@]12CN(Cc3ccco3)C[C@]1([H])[C@H](OC)CCN2Cc1ccoc1 | A: 7.312%; D: -9.684%
* COc1cc(C(=O)N2Cc3cnc(C(C)(C)C)nc3C2)ccn1 | A: -43.06%; B: 5.879%; C: 16.13%; D: 3.846%
* CN(Cc1cccc(C(N)=O)c1)c1ncc(C(N)=O)cc1Cl | A: 5.846%; B: 4.775%; C: 11.71%; D: 2.386%
* CCCNC(=O)c1ccc(NC(=O)c2cccc(OCC)c2)cc1 | A: -3.791%; B: 1.318%; C: 3.846%; D: -10.62%
* COc1cccc(CN2CC[C@H](NC(C)=O)[C@@H](O)CC2)c1F | A: 5.917%; B: 5.275%; C: 14.43%; D: 7.316%
* Cc1ccc(-c2nc(CC(=O)N3CCCC(NC(=O)C(C)C)C3)cs2)o1 (centres unmarked) | A: 0.6348%; B: 5.415%; C: 15.79%; D: -7.487%
* COc1ccc(CNC(Cc2ccsc2)c2ncccc2C)cc1OC (centres unmarked) | A: 7.856%; B: -1.039%; C: 21.74%; D: 14.08%
* CN1CC(=O)N(c2ccccc2)CC12CCN(C(=O)c1cccs1)C2.O=C(O)C(F)(F)F (centres unmarked) | A: -1.967%; D: -9.588%
* O=C(O)C(F)(F)F.[H][C@@]12CCN(CC(=O)N(C)C)C(=O)[C@@]1([H])CN(c1ncc(C)cn1)C2 | A: -40%; D: -4.782%
* Cc1noc(C)c1CN1CCO[C@H]2CN(Cc3ccc(F)cc3)C[C@H]21 | B: 5.145%; C: 4.425%
* CC1COCCN1Cc1nc(-c2cccs2)no1 (centres unmarked) | A: -50.94%; B: 4.744%; C: 23.81%; D: 6.72%
* OC1(CN2CCC(Oc3cccc(C(F)(F)F)c3)CC2)CNCCOC1 (centres unmarked) | A: -13.41%; B: 1.405%; C: 0%; D: 2.754%
* Cc1cc(C(=O)N2CCCC3(CCCN3Cc3cccnc3)C2)[nH]n1 (centres unmarked) | A: -7.334%; B: -0.1141%; C: 26.32%; D: 6.859%
* Cl.NC(=O)C(c1ccc(F)cc1)N1CCN(CCO)CC1 (centres unmarked) | A: -19.82%; D: 3.654%
* CCOc1ccnc(N2CCN(C(=O)c3cc(Cl)c[nH]3)CC2)n1 | A: 13.08%; B: 11.7%; C: 16.85%
* Cc1ccc(C)c(OCCC(=O)N2CCCN(CC(N)=O)CC2)c1 | B: 1.315%; C: 15.25%; D: 12.23%
* Fc1ccc(CN2CCCn3nnc(COCC4CC4)c3C2)cc1.O=C(O)C(F)(F)F | A: -25.9%; D: -6.173%
* COc1cc(F)c(C(C)NC(=O)c2cccnc2C)cc1OC (centres unmarked) | A: 1.657%; B: 3.787%; C: 16.44%; D: -5.526%
* Cc1cc(C(=O)NCCSC2CCCC2)no1 | A: -17.72%; B: 2.138%; C: 10.42%; D: -0.5821%
* CC[C@@H]1N(CC2CC2)CCC[C@]12CCC(=O)N2CCOC | B: 1.353%; C: 15.09%
* O=C(NCc1cccnc1)NCC(O)c1ccccc1C(F)(F)F (centres unmarked) | A: -36.49%; B: -4.17%; C: 1.667%; D: 8.761%